Source: paper PMC6521040
Results are given in words; binding and its absence hold for the method and conditions named.

Biological target: CbtA (Ea), CbtA toxin from Erwinia amylovora strain CTBT3-1 (Erwinia amylovora strain CTBT3-1)
Experiment: two-hybrid; GAL4 DNA binding domain bait and activation domain prey fusions co-transformed into S. cerevisiae strain Y2H gold; growth on SD/-Leu/-Trp and SD/-Leu/-Trp/-His plates, 30 °C, 3 days

B1: MreB (Ea), cytoskeletal protein MreB from Erwinia amylovora strain CTBT3-1 (protein, UniProt A0ABX7MI44 1-347)
chain: MFKKFRGMFSNDLSIDLGTANTLIYVKGQGIVLNEPSVVAIRQDRAGSPKSVAAVGHDAKQMLGRTPGNIAAIRPMKDGVIADFFVTEKMLQHFIKQVHSNSFMRPSPRVLVCVPVGATQVERRAIRESAQGAGAREVFLIEEPMAAAIGAGLPVSEATGSMVVDIGGGTTEVAVISLNGVVYSSSVRIGGDRFDEAIINYVRRNYGSLIGEATAERIKHGIGSAYPGDEVREIEVRGRNLAEGVPRGFTLNSNEILEALQEPLTGIVSAVMVALEQCPPELASDISERGMVLTGGGALLRNLDRLLMEETGIPVVVAEDPLTCVARGGGKALEMIDMHGGDLFSEE
Question: Which binding does the source give for B1 here?
Answer: no binding
